# Experimental data reported in the supplement of paper PMC5949888.
# Most values lie at the floor of the assay. Slopes are relative: functional sequences can read slightly below zero.
# Test system: Saccharomyces cerevisiae PS128 hsf1 delta, HSF1(1-493) fusion
# Test: growth estimate (transactivation domain function in HSF1 fusion, heat-shock survival) (a.u. (slope of normalised read count over time)); higher = stronger growth at 37°C, i.e. more transactivation activity
# Details: library: random library
# Description: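 Random 60-nt DNA library encoding peptides of up to 20 aa, fused to the C-terminus of yeast HSF1 residues 1-493 (C-terminal TAD deleted) and expressed from the native HSF1 promoter on a CEN plasmid in hsf1-deleted S. cerevisiae PS128. Cells were selected at 37°C on -trp 5-FOA plates for 0, 2, 4, 6 and 8 days and amplicons were sequenced. Growth estimate is the slope of a robust linear fit of total-sum-normalised read counts (normalised to the first time point) over time, using at least 2 replicates. Sequences are classed functional (TAD activity) above a threshold of -0.13, set from stop-codon control sequences.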
row,Substance,growth estimate
1,ERSGGEQNCLCKLLNEGLCT,< -0.25
2,KEGLK,< -0.25
3,VVPPGWMGVLPVTHANSQEI,< -0.25
4,LGRRCCSFGCPSTLRGGGRS,< -0.25
5,IRGVSQASSGGTPLMTIVAC,< -0.25
6,CCERRRTRLSVRAAGAYFPH,< -0.25
7,REHLYETSAD,< -0.25
8,SEGVCLSGFTK,< -0.25
9,RWIIA,< -0.25
10,SRKLVYAIGCVGTKFGTPRG,< -0.25
11,ITFRGYWAHLSDQPGHEFHG,-0.137
12,LLQRFLTTAWD,0.109
13,PLMLPNRRSCRE,< -0.25
14,VTGFALPPVPDMGIILGKDQ,< -0.25
15,PRIGWLLLEWIGDG,< -0.25
16,GTIRK,< -0.25
17,ECVLSASAVTCGQIVNRPAT,< -0.25
18,VLRCLVNKMENRVSSQYC,< -0.25
19,GWPEAIYGDFDPLQTSGVHG,< -0.25
20,LGTVMREFSMQLLCWQLRVP,< -0.25
21,GGKLAS,< -0.25
22,MCLLAS,< -0.25
23,RQGVYRGLMCSWATGTRR,< -0.25
24,SEMYVPKKGTARKYRIGCQG,< -0.25
25,SCNTIYIDYAVMES,-0.248

# Three records drawn at random from those above, as already listed:
row,Substance,growth estimate
23,RQGVYRGLMCSWATGTRR,< -0.25
9,RWIIA,< -0.25
8,SEGVCLSGFTK,< -0.25

# Next part.

row,Substance,growth estimate
1,CMHFQSSTHRRGTGLLPLSP,< -0.25
2,TSMNVTFDLDPGLFVTVFAG,< -0.25
3,YSQDDWV,< -0.25
4,WRFLWSGSMD,-0.219
5,GSIVYLHQVRTPGPSVRSDS,< -0.25
6,PTPP,< -0.25
7,WSLGNLS,< -0.25
8,ELNVVFDMHRLR,< -0.25
9,VSIAFSTAGDRECQRHNE,< -0.25
10,CGGTSW,< -0.25
11,CVDDLGSSETSRNLYAGIDQ,< -0.25
12,AIS,< -0.25
13,CCTLGKTL,< -0.25
14,EYIRR,< -0.25
15,VCVSVPLGMET,< -0.25
16,AETTGETEGPRL,< -0.25
17,VVGGIVGPTYGARADSAFWS,< -0.25
18,TVGWWLGQAGKRSVDKNRGP,< -0.25
19,GASTIVPKSAEETNTLRGPA,< -0.25
20,PILSPKVELAGVLHIVVGVT,< -0.25
21,VRSGPGYL,< -0.25
22,ADGTSECPPWAASLSPLNGI,< -0.25
23,RTGCDCFCEGPGVCHMRAYV,< -0.25
24,GVIHIQVRT,< -0.25
25,LNDPAGTPRRRLET,< -0.25

row,Substance,growth estimate
1,TVT,< -0.25
2,DVELRLTAALGSLPRMCGVR,< -0.25
3,ENLLGLIVGHRIR,< -0.25
4,GPQRLGRFHRAFSVFLRAPP,< -0.25
5,IPCPFQAPASRKRGALDD,< -0.25
6,CSHFLIQQILDTAS,< -0.25
7,SGQLGRDWYSGLIDS,< -0.25
8,ASRTNRRGPYG,< -0.25
9,VLVSAPCKPE,< -0.25
10,SWGPADRRP,< -0.25
11,RVPQICVARLLRCNIHRSA,< -0.25
12,TTVVLQLLAWGGHESVRKQY,< -0.25
13,TSHKSFVHDYYNRPWSPSHG,< -0.25
14,QATAVEYYGLRAAHSRLGAR,< -0.25
15,IRDQNRSRKLWSSRADLEHG,< -0.25
16,CSRVLRWYVSVEDRGCYKCL,< -0.25
17,ALLATGYAYLSVRLKGASGS,< -0.25
18,VAD,< -0.25
19,VLEWDCRESTHITC,< -0.25
20,AKTA,< -0.25
21,HTALHDQR,< -0.25
22,STENL,< -0.25
23,VGYRVSCRVRIRQCGAVRRR,< -0.25
